Results published in PMC5920098, “Identification of the allosteric P2X7 receptor antagonist [^11C]SMW139 as a PET tracer of microglial activation” (Scientific Reports, 2018).

Test: Ex vivo metabolite analysis (plasma and brain) in healthy male Wistar rats
Settings: rat brain homogenate, MeCN/H2O extraction
Protocol: In vivo stability of analogues [^11C]1–3 and [^11C]SMW139 was assessed in healthy male Wistar rats at 15 and 45 minutes after injection of 30–40 MBq of formulated tracer. […] Results obtained in plasma correspond with previously reported stability results in rat liver microsomes. A higher level of intact tracer was found in brain (Table 3) for [^11C]1 and [^11C]SMW139 compared with [^11C]2 and [^11C]3. Despite optimisation of the extraction method, the percentage of total radioactivity that could be extracted from brain homogenates was not optimal for all four compounds (59 ± 6% for [^11C]1; 58 ± 7% for [^11C]2; 61 ± 4% for [^11C]3; 62 ± 3% for [^11C]SMW139). Therefore, based on its highest stability in plasma in vivo, [^11C]SMW139 was selected for further in vivo studies. As imaging studies were performed in female rats, plasma metabolites were also determined in two female rats, and no differences were found between plasma metabolism of [^11C]SMW139 in male and female rats (Table S1; Supplementary Information).
For each of the carbon-11 labelled benzamide analogues [^11C]1–3 and [^11C]SMW139, a biodistribution study and metabolite analysis in healthy male Wistar rats was performed, as described in detail in the Supplementary Information. Briefly, tracer distribution in blood, brain, and peripheral organs was measured at 5, 15, 30 and 45 min after intravenous injection of 13–23 MBq of formulated tracer. Metabolite analysis was performed at 15 and 45 min after intravenous injection of 30–40 MBq of formulated tracer in both blood plasma and brain. […]
Ex vivo metabolite analysis
Healthy male and female Wistar rats (254-440 g) were injected with 30-40 MBq (at start of experiment) of formulated tracer in the tail vein under isoflurane anaesthesia. Rats were sacrificed at 15 and 45 min (n = 3 per time point). Blood samples were obtained and the brain was excised. Blood samples were collected in heparin tubes (BD Vacutainer NH 119 I.U., 7 mL, BD Vacutainer Systems, Plymouth, UK) and centrifuged at 4,000 rpm for 5 min at 4 °C (Hettich Universal 32, Andreas Hettich GmbH & Co.KG, Tuttlingen, Germany). Plasma supernatant was separated from blood cells and loaded onto a tC18 Sep-Pak (Waters, Milford, MA, USA), followed by washing with 3 mL of water to obtain the polar fraction. The non-polar fraction was then eluted with 2 mL of MeOH and 1 mL of water and further analysed by HPLC. […] Supernatant was separated from brain precipitate and analysed by HPLC. […]
0.25 mL·min-1. All separate fractions were counted for radioactivity in a Wizard Gammacounter 1470 or 2480 (Wallac/PerkinElmer, Waltham, MA, USA).

Compound	Percentage of total radioactivity extracted from brain homogenates
[11CH3]Oc1ccc(Cl)c(C(=O)NCC23CC4CC(CC(C4)C2)C3)c1 [[^11C]1]	59 ± 6%
[11CH3]Oc1ccc(Cl)c(C(=O)NCC23CC4CC(CC(F)(C4)C2)C3)c1 [[^11C]2]	58 ± 7%
[11CH3]Oc1ccc(Cl)c(C(=O)NCC23CC4CC(F)(CC(F)(C4)C2)C3)c1 [[^11C]3]	61 ± 4%
[11CH3]Oc1ccc(Cl)c(C(=O)NCC23CC4(F)CC(F)(CC(F)(C4)C2)C3)c1 [[^11C]SMW139]	62 ± 3%
